{
  "source": "paper PMC11055877",
  "binders": {"B1": {"name": "retinoblastoma protein pRb, P06400 1-928 (protein)", "chain": "MPPKTPRKTAATAAAAAAEPPAPPPPPPPEEDPEQDSGPEDLPLVRLEFEETEEPDFTALCQKLKIPDHVRERAWLTWEKVSSVDGVLGGYIQKKKELWGICIFIAAVDLDEMSFTFTELQKNIEISVHKFFNLLKEIDTSTKVDNAMSRLLKKYDVLFALFSKLERTCELIYLTQPSSSISTEINSALVLKVSWITFLLAKGEVLQMEDDLVISFQLMLCVLDYFIKLSPPMLLKEPYKTAVIPINGSPRTPRRGQNRSARIAKQLENDTRIIEVLCKEHECNIDEVKNVYFKNFIPFMNSLGLVTSNGLPEVENLSKRYEEIYLKNKDLDARLFLDHDKTLQTDSIDSFETQRTPRKSNLDEEVNVIPPHTPVRTVMNTIQQLMMILNSASDQPSENLISYFNNCTVNPKESILKRVKDIGYIFKEKFAKAVGQGCVEIGSQRYKLGVRLYYRVMESMLKSEEERLSIQNFSKLLNDNIFHMSLLACALEVVMATYSRSTSQNLDSGTDLSFPWILNVLNLKAFDFYKVIESFIKAEGNLTREMIKHLERCEHRIMESLAWLSDSPLFDLIKQSKDREGPTDHLESACPLNLPLQNNHTAADMYLSPVRSPKKKGSTTRVNSTANAETQATSAFQTQKPLKSTSLSLFYKKVYRLAYLRLNTLCERLLSEHPELEHIIWTLFQHTLQNEYELMRDRHLDQIMMCSMYGICKVKNIDLKFKIIVTAYKDLPHAVQETFKRVLIKEEEYDSIIVFYNSVFMQRLKTNILQYASTRPPTLSPIPHIPRSPYKFPSSPLRIPGGNIYISPLKSPYKISEGLPTPTKMTPRSRILVSIGESFGTSEKFQKINQMVCNSDRVLKRSAEGSNPPKPLKKLRFDIEGSDEADGSKHLPGESKFQQKLAEMTSTRTRMQKQKMNDSMDTSNKEEK"}, "B2": {"name": "RBL2, Q08999 1-1139 (protein)", "chain": "MPSGGDQSPPPPPPPPAAAASDEEEEDDGEAEDAAPPAESPTPQIQQRFDELCSRLNMDEAARAEAWDSYRSMSESYTLEGNDLHWLACALYVACRKSVPTVSKGTVEGNYVSLTRILKCSEQSLIEFFNKMKKWEDMANLPPHFRERTERLERNFTVSAVIFKKYEPIFQDIFKYPQEEQPRQQRGRKQRRQPCTVSEIFHFCWVLFIYAKGNFPMISDDLVNSYHLLLCALDLVYGNALQCSNRKELVNPNFKGLSEDFHAKDSKPSSDPPCIIEKLCSLHDGLVLEAKGIKEHFWKPYIRKLYEKKLLKGKEENLTGFLEPGNFGESFKAINKAYEEYVLSVGNLDERIFLGEDAEEEIGTLSRCLNAGSGTETAERVQMKNILQQHFDKSKALRISTPLTGVRYIKENSPCVTPVSTATHSLSRLHTMLTGLRNAPSEKLEQILRTCSRDPTQAIANRLKEMFEIYSQHFQPDEDFSNCAKEIASKHFRFAEMLYYKVLESVIEQEQKRLGDMDLSGILEQDAFHRSLLACCLEVVTFSYKPPGNFPFITEIFDVPLYHFYKVIEVFIRAEDGLCREVVKHLNQIEEQILDHLAWKPESPLWEKIRDNENRVPTCEEVMPPQNLERADEICIAGSPLTPRRVTEVRADTGGLGRSITSPTTLYDRYSSPPASTTRRRLFVENDSPSDGGTPGRMPPQPLVNAVPVQNVSGETVSVTPVPGQTLVTMATATVTANNGQTVTIPVQGIANENGGITFFPVQVNVGGQAQAVTGSIQPLSAQALAGSLSSQQVTGTTLQVPGQVAIQQISPGGQQQKQGQSVTSSSNRPRKTSSLSLFFRKVYHLAAVRLRDLCAKLDISDELRKKIWTCFEFSIIQCPELMMDRHLDQLLMCAIYVMAKVTKEDKSFQNIMRCYRTQPQARSQVYRSVLIKGKRKRRNSGSSDSRSHQNSPTELNKDRTSRDSSPVMRSSSTLPVPQPSSAPPTPTRLTGANSDMEEEERGDLIQFYNNIYIKQIKTFAMKYSQANMDAPPLSPYPFVRTGSPRRIQLSQNHPVYISPHKNETMLSPREKIFYYFSNSPSKRLREINSMIRTGETPTKKRGILLEDGSESPAKRICPENHSALLRRLQDVANDRGSH"}},
  "target": "E2F4 (human (endogenous in PDAC CSCs)), Q16254",
  "test": "co-IP; nuclear and chromatin fractions of pancreatic CSCs (Nuclear Lysis Buffer: 50 mM Tris HCl pH 7.5, 100 mM NaCl, 50 mM KCl, 2 mM MgCl2, 1 mM EDTA, 10% glycerol, 0.3% Triton X-100; Benzonase); 5 µg cross-linked antibodies for 12 h at 4 °C; western blot; alternatively the nuclear complex co-IP kit (Active Motif)",
  "settings": "remark: other sources report otherwise",
  "note": "These are yes or no findings as the source states them, for the method shown. Binding seen in cells or lysates may run through a third protein. Some results given as binding are weak or reduced against the parent protein; the word gives no strength.",
  "data": [
    {"binder": "B1", "values": [
      {"measurement": "binding", "value": "binds"}
    ]},
    {"binder": "B2", "values": [
      {"measurement": "binding", "value": "binds"}
    ]}
  ]
}
